Here are results for two molecules from PMC8930183, “Structure of the Pf12 and Pf41 heterodimeric complex of Plasmodium falciparum 6-cysteine proteins” (FEMS Microbes, 2022).

Protein sequences, listed by entry. Tags and fused reporters are not part of them. Residues count along the entry.
UniProt Q8I1Y0, residues 21-368: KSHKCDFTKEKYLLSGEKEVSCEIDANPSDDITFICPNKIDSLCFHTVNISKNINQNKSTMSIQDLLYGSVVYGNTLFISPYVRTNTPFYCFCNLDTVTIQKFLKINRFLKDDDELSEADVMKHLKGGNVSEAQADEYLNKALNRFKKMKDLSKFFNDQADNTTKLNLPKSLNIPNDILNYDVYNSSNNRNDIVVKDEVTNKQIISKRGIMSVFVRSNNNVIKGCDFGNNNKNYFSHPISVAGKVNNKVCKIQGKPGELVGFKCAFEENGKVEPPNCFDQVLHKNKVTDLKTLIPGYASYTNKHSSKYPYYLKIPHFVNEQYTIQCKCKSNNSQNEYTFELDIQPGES

This test concerns the target octa-histidine tagged Pf41 D1D2 (residues 21-368) (Plasmodium falciparum) (UniProt Q8I1Y0). Put plainly: BLI; Octet RED96e; octa-histidine tagged Pf41 loaded on NTA sensors; untagged Pf12 wildtype, mutant or single domain 31-1000 nM; PBS pH 7.4, 0.1% BSA, 0.05% TWEEN-20, 25°C; read-out relative maximum response against wildtype; both purified. A general note: In BLI a coated tip is dipped into the sample, and binding shifts an interference pattern.

Results are given in words; binding and its absence hold for the method and conditions named.

B1: Pf12 D1 (residues N28-L172) (domain or fragment, UniProt C6KSX0 28-172)
chain: NLTCDFNDVYKLEFHPNQQTSVTKLCNLTPNVLEKVTIKCGSDKLNYNLYPPTCFEEVYASRNMMHLKKIKEFVIGSSMFMRRSLTPNKINEVSFRIPPNMMPEKPIYCFCENKKTITINGSNGNPSSKKDIINRGIVEIIIPSL
For the molecule B1, the binding entry is given as “no binding”.

B2: Pf12 D2 (residues E174-S304) (domain or fragment, UniProt C6KSX0 174-304)
chain: EKVKGCDFTTSESTIFSKGYSINEISNKSSNNQQDIVCTVKAHANDLIGFKCPSNYSVEPHDCFVSAFNLSGKNENLENKLKLTNIIMDHYNNTFYSRLPSLISDNWKFFCVCSKDNEKKLVFTVEASISS
On to B2, for which the binding result is recorded as “no binding”.
